This series is described as follows: general procedure: solution-phase peptide synthesis; PyAop.

With “Fmoc-CpSar-MeBmt-Abu-Sar-MeLeu-Val-MeLeu-Ala-D-Ala-MeLeu-Meleuvalinol ester”, where the note is “coupling step”, the step yield was 99%.

Under “late stage modification step”, “HNMe-CpSar-MeBmt-Abu-Sar-MeLeu-Val-MeLeu-Ala-D-Ala-MeLeu-Meleu-OH” came in with a step yield of 59%.

Source of the values: US6982082B1 (President and Fellows of Harvard College, priority 1996, dated 2006).
